Measurements: ChEMBL document CHEMBL4028900, “Design of Novel 3-Pyrimidinylazaindole CDK2/9 Inhibitors with Potent In Vitro and In Vivo Antitumor Efficacy in a Triple-Negative Breast Cancer Model” (J Med Chem, 2017)

The chains behind the UniProt entries cited, without tags or fusion partners. Where a name states a change or a piece, a line headed by the entry shows the natural chain unless it says otherwise.
UniProt P41240: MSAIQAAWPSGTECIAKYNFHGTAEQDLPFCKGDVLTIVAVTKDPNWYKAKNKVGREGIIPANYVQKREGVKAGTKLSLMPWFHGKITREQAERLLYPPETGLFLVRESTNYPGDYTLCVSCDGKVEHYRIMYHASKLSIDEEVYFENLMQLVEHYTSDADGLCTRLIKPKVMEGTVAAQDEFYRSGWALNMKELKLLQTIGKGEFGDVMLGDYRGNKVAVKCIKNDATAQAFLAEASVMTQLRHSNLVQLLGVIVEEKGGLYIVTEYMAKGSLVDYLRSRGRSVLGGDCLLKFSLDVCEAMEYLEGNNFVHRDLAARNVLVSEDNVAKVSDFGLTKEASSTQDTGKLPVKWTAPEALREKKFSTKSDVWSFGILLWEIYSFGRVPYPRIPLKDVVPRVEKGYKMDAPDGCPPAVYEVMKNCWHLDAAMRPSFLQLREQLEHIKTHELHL
UniProt P53779: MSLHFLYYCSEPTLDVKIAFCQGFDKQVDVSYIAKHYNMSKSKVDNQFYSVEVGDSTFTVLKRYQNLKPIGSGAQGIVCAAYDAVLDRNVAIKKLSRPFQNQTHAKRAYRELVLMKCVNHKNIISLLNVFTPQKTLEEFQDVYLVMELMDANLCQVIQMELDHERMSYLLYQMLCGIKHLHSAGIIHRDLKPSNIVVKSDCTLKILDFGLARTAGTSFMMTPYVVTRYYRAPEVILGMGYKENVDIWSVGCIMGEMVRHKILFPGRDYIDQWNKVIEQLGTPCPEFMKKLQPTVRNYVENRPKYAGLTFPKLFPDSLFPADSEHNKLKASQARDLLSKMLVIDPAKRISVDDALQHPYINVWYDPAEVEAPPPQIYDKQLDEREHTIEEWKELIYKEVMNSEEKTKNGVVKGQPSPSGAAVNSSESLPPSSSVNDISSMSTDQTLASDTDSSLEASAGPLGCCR
UniProt P49841: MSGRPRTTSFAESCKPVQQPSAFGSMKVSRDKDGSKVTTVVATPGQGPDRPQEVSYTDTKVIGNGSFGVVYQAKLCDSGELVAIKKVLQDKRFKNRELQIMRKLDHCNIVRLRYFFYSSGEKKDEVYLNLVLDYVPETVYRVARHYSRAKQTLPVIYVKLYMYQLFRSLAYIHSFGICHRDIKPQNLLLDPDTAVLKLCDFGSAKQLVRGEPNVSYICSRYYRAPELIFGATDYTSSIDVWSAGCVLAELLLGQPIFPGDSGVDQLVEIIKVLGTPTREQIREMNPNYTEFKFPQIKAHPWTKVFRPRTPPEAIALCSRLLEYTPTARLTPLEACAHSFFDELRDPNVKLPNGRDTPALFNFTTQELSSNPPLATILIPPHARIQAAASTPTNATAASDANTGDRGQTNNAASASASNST
UniProt Q13882, whole entry, looked up: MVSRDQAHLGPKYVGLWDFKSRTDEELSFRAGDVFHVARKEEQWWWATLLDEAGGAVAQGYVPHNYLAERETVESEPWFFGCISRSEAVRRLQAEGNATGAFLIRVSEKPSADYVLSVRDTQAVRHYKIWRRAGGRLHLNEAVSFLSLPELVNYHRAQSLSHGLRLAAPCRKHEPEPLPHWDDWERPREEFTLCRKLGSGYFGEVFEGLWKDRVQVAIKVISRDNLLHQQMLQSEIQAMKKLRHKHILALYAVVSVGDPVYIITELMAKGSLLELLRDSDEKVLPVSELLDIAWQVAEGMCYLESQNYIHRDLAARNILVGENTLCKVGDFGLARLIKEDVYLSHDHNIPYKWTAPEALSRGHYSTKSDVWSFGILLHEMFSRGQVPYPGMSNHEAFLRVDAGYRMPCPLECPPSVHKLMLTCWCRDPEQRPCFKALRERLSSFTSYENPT
UniProt P23443: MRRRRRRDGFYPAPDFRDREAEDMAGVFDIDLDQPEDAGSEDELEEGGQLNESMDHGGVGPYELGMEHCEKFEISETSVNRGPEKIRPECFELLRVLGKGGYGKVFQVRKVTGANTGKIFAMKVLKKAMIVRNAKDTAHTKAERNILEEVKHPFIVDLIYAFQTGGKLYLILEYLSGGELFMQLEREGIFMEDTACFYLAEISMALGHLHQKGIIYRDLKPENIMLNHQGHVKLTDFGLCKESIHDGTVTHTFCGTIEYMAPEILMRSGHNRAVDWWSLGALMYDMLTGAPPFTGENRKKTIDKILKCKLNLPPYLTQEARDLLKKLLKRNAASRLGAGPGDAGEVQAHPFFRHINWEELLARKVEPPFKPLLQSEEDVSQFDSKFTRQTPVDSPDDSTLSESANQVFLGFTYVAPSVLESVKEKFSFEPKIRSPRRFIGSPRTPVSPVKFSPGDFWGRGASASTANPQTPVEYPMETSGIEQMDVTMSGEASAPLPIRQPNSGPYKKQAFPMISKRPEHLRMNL
UniProt P14616: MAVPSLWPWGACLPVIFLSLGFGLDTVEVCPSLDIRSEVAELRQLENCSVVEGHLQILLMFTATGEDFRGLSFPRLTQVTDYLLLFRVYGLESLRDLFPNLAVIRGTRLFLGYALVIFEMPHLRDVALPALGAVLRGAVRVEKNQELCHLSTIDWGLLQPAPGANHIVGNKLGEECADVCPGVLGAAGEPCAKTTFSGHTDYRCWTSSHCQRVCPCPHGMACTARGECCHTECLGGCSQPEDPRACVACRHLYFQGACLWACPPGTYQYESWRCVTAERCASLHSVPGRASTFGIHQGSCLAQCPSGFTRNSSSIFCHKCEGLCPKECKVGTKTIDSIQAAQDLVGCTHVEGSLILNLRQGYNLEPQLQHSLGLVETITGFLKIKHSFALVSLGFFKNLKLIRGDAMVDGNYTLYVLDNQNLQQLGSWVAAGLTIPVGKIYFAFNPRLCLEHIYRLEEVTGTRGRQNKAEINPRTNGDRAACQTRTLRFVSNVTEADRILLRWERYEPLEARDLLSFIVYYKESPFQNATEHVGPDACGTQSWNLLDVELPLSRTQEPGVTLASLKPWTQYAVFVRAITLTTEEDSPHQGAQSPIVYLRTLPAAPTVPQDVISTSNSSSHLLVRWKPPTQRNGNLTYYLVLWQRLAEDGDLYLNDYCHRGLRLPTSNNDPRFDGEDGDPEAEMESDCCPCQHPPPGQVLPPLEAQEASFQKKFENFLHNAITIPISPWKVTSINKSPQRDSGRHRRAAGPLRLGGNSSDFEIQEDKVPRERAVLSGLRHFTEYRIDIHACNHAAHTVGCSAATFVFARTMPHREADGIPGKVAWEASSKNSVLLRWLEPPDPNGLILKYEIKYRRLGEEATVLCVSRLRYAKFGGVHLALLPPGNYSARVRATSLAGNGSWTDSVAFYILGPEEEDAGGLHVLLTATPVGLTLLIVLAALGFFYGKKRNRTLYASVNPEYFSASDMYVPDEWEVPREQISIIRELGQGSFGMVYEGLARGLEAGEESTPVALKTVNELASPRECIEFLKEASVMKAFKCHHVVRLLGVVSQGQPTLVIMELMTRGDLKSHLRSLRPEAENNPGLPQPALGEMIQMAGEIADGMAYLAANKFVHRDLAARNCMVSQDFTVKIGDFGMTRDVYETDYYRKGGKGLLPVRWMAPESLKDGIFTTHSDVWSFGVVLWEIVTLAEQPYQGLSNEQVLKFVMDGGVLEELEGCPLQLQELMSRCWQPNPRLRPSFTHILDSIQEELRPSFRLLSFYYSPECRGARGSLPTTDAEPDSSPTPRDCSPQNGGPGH
UniProt P11802: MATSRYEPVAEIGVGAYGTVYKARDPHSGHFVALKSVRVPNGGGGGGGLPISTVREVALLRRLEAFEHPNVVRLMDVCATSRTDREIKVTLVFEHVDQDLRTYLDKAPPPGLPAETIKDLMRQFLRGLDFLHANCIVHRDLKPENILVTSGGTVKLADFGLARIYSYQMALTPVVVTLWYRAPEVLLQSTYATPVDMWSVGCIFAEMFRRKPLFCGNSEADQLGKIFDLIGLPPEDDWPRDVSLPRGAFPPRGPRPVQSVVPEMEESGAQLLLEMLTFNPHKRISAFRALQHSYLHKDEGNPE
UniProt P24385: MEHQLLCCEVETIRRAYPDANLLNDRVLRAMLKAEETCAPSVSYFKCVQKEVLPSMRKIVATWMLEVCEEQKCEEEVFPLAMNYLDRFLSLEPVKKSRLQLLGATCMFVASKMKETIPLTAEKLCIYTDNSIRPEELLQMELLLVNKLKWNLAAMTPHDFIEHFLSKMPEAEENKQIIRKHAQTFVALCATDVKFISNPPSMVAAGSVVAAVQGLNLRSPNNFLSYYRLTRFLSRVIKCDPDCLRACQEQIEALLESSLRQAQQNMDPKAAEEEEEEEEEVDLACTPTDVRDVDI
UniProt P42336, whole entry: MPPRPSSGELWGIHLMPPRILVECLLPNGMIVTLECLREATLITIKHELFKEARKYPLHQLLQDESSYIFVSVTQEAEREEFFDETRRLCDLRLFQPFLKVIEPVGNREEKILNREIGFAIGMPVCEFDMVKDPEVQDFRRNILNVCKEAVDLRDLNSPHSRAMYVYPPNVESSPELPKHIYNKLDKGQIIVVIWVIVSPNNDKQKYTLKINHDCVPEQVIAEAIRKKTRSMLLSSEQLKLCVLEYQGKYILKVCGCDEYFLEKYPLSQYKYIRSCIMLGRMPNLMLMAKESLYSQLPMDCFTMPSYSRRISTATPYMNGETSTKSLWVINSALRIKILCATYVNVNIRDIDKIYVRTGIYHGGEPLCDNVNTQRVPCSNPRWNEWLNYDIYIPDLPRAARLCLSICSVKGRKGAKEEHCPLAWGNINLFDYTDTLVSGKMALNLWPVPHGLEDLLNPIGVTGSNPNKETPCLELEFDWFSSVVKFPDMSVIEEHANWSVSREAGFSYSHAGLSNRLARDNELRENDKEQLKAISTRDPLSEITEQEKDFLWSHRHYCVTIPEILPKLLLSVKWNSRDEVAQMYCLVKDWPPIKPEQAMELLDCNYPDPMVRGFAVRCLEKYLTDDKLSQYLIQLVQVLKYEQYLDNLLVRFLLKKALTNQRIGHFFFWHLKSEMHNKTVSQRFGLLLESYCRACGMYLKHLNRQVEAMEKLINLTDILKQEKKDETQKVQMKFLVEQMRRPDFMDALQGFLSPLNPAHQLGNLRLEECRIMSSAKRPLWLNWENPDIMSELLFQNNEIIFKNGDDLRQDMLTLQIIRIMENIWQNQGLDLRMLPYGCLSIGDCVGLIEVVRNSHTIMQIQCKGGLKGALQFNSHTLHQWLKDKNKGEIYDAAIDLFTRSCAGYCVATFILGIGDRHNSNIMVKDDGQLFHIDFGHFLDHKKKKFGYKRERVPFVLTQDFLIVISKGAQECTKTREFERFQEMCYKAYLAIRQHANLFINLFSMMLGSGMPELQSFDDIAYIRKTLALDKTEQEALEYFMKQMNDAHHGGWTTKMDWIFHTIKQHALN
UniProt P53350, whole entry: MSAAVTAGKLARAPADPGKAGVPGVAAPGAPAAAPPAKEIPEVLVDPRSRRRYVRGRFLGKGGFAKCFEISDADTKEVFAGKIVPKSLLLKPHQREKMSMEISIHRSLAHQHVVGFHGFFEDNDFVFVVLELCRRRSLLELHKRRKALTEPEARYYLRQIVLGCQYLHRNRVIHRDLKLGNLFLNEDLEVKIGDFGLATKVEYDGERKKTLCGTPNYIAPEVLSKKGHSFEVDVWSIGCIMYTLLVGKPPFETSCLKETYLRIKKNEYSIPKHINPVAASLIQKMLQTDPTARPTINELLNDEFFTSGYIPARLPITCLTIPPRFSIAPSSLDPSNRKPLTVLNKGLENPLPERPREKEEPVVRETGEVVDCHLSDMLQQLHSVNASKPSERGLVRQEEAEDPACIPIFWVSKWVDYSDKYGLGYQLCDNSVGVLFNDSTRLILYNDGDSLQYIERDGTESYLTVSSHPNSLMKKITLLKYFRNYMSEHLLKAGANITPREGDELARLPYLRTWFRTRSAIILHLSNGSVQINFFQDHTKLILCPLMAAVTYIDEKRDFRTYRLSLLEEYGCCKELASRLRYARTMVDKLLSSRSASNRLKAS
UniProt Q9P289: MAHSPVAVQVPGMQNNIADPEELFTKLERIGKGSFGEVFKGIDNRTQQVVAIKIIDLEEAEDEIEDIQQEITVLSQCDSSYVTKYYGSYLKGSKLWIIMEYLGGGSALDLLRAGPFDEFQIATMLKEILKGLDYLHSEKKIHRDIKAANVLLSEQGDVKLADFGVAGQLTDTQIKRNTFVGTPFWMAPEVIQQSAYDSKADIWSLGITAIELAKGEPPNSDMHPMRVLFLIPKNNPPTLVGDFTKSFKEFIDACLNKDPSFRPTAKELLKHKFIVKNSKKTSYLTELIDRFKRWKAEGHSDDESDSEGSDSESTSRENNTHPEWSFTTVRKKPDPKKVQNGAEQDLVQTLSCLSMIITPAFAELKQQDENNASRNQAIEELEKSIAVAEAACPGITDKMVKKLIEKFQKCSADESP

Experiments:
[1] = target: Tyrosine-protein kinase CSK (Homo sapiens) (UniProt P41240); assay: Inhibition of CSK (unknown origin) at 100 nM relative to control
[2] = target: T1, Serine/threonine-protein kinase Sgk1 (Homo sapiens) (UniProt O00141); assay: Inhibition of SGK (unknown origin) at 100 nM relative to control
T1 sequence (whole entry): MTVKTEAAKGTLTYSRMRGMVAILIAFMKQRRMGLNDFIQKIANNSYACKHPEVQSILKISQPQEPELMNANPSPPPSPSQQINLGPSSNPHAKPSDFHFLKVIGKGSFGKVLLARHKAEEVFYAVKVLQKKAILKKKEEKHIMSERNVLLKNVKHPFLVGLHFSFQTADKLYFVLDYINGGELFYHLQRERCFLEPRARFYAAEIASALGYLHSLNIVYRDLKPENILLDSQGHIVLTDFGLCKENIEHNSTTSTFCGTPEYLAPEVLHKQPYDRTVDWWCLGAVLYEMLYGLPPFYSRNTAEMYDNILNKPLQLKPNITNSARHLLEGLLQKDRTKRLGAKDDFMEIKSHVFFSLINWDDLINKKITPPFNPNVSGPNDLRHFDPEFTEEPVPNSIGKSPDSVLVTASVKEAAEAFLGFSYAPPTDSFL

[3] = target: T2, Serine/threonine-protein kinase Chk1 (Homo sapiens) (UniProt O14757); assay: Inhibition of CHK1 (unknown origin) at 100 nM relative to control
T2 sequence (whole entry): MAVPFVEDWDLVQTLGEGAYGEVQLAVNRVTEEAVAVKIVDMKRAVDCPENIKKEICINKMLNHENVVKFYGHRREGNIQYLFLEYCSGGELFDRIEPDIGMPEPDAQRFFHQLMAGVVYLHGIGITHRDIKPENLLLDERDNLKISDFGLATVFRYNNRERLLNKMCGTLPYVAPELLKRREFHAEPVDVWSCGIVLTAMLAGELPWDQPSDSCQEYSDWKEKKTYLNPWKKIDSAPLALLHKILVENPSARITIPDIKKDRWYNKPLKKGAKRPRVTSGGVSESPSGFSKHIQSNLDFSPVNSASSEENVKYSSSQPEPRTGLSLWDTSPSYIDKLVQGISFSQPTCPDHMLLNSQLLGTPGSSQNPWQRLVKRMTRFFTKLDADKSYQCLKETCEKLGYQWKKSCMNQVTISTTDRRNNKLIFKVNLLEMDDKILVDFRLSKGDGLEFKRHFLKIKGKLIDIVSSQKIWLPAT

[4] = target: T3, Aurora kinase A (Homo sapiens) (UniProt O14965); assay: Inhibition of aurora A (unknown origin) at 500 nM relative to control
T3 sequence (whole entry): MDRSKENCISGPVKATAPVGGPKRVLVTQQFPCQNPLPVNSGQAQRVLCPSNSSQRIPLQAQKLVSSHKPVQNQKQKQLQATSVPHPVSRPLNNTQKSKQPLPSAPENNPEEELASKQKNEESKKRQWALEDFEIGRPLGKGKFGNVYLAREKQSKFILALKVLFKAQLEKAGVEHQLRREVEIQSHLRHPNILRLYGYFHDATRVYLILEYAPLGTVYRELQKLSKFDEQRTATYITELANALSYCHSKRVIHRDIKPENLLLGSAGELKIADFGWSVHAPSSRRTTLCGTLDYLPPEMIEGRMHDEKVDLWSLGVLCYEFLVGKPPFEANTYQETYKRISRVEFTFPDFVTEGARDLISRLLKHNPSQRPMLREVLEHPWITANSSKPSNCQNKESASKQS

[5] = target: Mitogen-activated protein kinase 10 (Homo sapiens) (UniProt P53779); assay: Inhibition of JNK3 (unknown origin) at 500 nM relative to control
[6] = target: Dual specificity tyrosine-phosphorylation-regulated kinase 1A (Homo sapiens) (UniProt Q13627); details: at 100 nM
[7] = target: Glycogen synthase kinase-3 beta (Homo sapiens) (UniProt P49841); assay: Inhibition of GSK3b (unknown origin) at 100 nM relative to control
[8] = target: Glycogen synthase kinase-3 beta (Homo sapiens) (UniProt P49841); assay: Inhibition of GSK3b (unknown origin) at 500 nM relative to control
[9] = target: Protein-tyrosine kinase 6 (Homo sapiens) (UniProt Q13882); assay: Inhibition of BRK (unknown origin) at 500 nM relative to control
[10] = target: Tyrosine-protein kinase CSK (Homo sapiens) (UniProt P41240); assay: Inhibition of CSK (unknown origin) at 500 nM relative to control
[11] = target: T4, Tyrosine-protein kinase JAK3 (Homo sapiens) (UniProt P52333); assay: Inhibition of JAK3 (unknown origin) at 500 nM relative to control
T4 sequence (whole entry): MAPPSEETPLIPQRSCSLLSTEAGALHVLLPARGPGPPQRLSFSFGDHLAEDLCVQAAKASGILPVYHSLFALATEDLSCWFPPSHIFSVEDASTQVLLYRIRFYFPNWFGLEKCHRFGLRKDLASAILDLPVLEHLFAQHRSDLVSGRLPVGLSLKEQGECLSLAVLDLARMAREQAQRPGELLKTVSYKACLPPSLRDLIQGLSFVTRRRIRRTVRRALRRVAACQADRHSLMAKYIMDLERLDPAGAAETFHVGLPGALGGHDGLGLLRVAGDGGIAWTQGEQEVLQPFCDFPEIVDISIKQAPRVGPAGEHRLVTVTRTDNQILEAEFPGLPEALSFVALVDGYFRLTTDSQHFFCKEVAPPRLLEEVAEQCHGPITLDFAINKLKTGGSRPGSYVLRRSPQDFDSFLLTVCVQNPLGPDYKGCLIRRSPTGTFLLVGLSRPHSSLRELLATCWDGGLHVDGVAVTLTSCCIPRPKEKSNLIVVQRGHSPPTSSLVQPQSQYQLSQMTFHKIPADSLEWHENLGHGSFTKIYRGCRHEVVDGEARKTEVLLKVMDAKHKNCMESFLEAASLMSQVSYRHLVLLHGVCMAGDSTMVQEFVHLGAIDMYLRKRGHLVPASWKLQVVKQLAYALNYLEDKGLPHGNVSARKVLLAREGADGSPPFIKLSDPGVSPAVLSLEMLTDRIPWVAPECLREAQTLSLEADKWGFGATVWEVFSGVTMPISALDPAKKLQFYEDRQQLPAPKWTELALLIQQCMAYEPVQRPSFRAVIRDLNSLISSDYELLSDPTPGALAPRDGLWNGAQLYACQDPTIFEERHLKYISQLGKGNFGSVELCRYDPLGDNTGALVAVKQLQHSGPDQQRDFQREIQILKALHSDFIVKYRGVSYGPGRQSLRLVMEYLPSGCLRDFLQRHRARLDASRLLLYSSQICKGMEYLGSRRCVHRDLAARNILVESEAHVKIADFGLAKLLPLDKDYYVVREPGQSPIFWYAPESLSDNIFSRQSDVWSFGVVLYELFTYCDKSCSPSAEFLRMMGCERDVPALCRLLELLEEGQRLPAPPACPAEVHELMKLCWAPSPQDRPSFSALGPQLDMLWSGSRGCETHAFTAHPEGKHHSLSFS

[12] = target: Vascular endothelial growth factor receptor 1 (Homo sapiens) (UniProt P17948); assay: Inhibition of VEGFR1 (unknown origin) at 100 nM relative to control
[13] = target: Protein-tyrosine kinase 6 (Homo sapiens) (UniProt Q13882); assay: Inhibition of BRK (unknown origin) at 100 nM relative to control
[14] = target: Ribosomal protein S6 kinase beta-1 (Homo sapiens) (UniProt P23443); assay: Inhibition of S6K1 (unknown origin) at 100 nM relative to control
[15] = target: Ribosomal protein S6 kinase beta-1 (Homo sapiens) (UniProt P23443); assay: Inhibition of S6K1 (unknown origin) at 500 nM relative to control
[16] = target: Tyrosine-protein kinase Lck (Homo sapiens) (UniProt P06239); assay: Inhibition of LCK (unknown origin) at 500 nM relative to control
[17] = target: Insulin receptor-related protein (Homo sapiens) (UniProt P14616); assay: Inhibition of IRR (unknown origin) at 500 nM relative to control
[18] = target: Cyclin-dependent kinase 4/cyclin D1 (Homo sapiens) (UniProt P11802+P24385); assay: Inhibition of CDK4/cyclin D1 (unknown origin) at 500 nM relative to control; format: protein-complex assay
[19] = target: Phosphatidylinositol 4,5-bisphosphate 3-kinase catalytic subunit alpha isoform (Homo sapiens) (UniProt P42336); assay: Inhibition of PI3Kalpha (unknown origin) at 100 nM relative to control
[20] = target: Tyrosine-protein kinase Lck (Homo sapiens) (UniProt P06239); assay: Inhibition of LCK (unknown origin) at 100 nM relative to control
[21] = target: T5, Serine/threonine-protein kinase Nek6 (Homo sapiens) (UniProt Q9HC98); assay: Inhibition of NEK6 (unknown origin) at 500 nM relative to control
T5 sequence (whole entry): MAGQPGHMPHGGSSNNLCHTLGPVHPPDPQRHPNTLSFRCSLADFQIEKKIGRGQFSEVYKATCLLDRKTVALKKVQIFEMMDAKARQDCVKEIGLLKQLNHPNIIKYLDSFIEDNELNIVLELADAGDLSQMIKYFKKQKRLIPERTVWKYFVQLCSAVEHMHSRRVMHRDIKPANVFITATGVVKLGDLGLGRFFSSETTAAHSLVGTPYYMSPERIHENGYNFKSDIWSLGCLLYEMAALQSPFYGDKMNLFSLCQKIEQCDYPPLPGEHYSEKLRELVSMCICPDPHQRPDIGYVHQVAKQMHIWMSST

[22] = target: T6, Inhibitor of nuclear factor kappa-B kinase subunit beta (Homo sapiens) (UniProt O14920); assay: Inhibition of IKKbeta (unknown origin) at 500 nM relative to control
T6 sequence (whole entry): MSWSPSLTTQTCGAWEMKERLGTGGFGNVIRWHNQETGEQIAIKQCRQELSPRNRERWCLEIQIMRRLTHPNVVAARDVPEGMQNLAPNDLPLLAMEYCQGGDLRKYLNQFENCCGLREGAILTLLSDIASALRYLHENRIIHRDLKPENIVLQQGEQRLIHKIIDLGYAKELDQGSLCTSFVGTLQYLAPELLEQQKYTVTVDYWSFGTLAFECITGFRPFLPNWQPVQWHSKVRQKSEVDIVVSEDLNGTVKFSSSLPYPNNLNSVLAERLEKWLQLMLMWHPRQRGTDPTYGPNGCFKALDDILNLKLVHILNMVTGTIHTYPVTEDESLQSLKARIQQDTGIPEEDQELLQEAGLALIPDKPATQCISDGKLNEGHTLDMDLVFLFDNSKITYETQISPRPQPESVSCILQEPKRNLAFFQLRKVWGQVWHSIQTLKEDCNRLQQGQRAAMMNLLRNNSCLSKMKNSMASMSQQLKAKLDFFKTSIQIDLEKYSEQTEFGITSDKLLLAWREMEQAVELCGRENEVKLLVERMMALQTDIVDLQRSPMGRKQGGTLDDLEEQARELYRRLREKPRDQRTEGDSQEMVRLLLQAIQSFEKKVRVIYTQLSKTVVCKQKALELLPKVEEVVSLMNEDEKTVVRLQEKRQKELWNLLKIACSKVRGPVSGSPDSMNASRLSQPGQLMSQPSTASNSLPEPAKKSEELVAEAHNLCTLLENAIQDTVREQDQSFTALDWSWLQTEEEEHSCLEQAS

[23] = target: T5, Serine/threonine-protein kinase Nek6 (Homo sapiens); assay: Inhibition of NEK6 (unknown origin) at 100 nM relative to control
[24] = target: T1, Serine/threonine-protein kinase Sgk1 (Homo sapiens); assay: Inhibition of SGK (unknown origin) at 500 nM relative to control
[25] = target: T4, Tyrosine-protein kinase JAK3 (Homo sapiens); assay: Inhibition of JAK3 (unknown origin) at 100 nM relative to control
[26] = target: Insulin receptor-related protein (Homo sapiens) (UniProt P14616); assay: Inhibition of IRR (unknown origin) at 100 nM relative to control
[27] = target: Serine/threonine-protein kinase PLK1 (Homo sapiens) (UniProt P53350); assay: Inhibition of PLK1 (unknown origin) at 100 nM relative to control
[28] = target: T3, Aurora kinase A (Homo sapiens); assay: Inhibition of aurora A (unknown origin) at 100 nM relative to control
[29] = target: Serine/threonine-protein kinase 26 (Homo sapiens) (UniProt Q9P289); assay: Inhibition of MST4 (unknown origin) at 100 nM relative to control
[30] = target: Serine/threonine-protein kinase PLK1 (Homo sapiens) (UniProt P53350); assay: Inhibition of PLK1 (unknown origin) at 500 nM relative to control
[31] = target: Phosphatidylinositol 4,5-bisphosphate 3-kinase catalytic subunit alpha isoform (Homo sapiens) (UniProt P42336); assay: Inhibition of PI3Kalpha (unknown origin) at 500 nM relative to control
[32] = target: Vascular endothelial growth factor receptor 1 (Homo sapiens) (UniProt P17948); assay: Inhibition of VEGFR1 (unknown origin) at 500 nM relative to control
[33] = target: T2, Serine/threonine-protein kinase Chk1 (Homo sapiens); assay: Inhibition of CHK1 (unknown origin) at 500 nM relative to control
[34] = target: Mitogen-activated protein kinase 10 (Homo sapiens) (UniProt P53779); assay: Inhibition of JNK3 (unknown origin) at 100 nM relative to control
[35] = target: Dual specificity tyrosine-phosphorylation-regulated kinase 1A (Homo sapiens) (UniProt Q13627); details: at 500 nM
[36] = target: T6, Inhibitor of nuclear factor kappa-B kinase subunit beta (Homo sapiens); assay: Inhibition of IKKbeta (unknown origin) at 100 nM relative to control
[37] = target: Serine/threonine-protein kinase 26 (Homo sapiens) (UniProt Q9P289); assay: Inhibition of MST4 (unknown origin) at 500 nM relative to control

Nc1nccc(-c2c[nH]c3ncc(-c4ccc(F)cc4)cc23)n1
inhibition [1]: 14.7%
inhibition [2]: 7.6%
inhibition [3]: 25.9%
inhibition [4]: 20.4%
inhibition [5]: 69.3%
inhibition [6]: 88.3%
inhibition [7]: 25.9%
inhibition [8]: 52.3%
inhibition [9]: 20.4%
inhibition [10]: 3.3%
inhibition [11]: 52.8%
inhibition [12]: 76.5%
inhibition [13]: -5.9%
inhibition [14]: 7.9%
inhibition [15]: 30.1%
inhibition [16]: 47.7%
inhibition [17]: 3.3%
inhibition [18]: 70.7%
inhibition [19]: 27.4%
inhibition [20]: 33.3%
inhibition [21]: 19.2%
inhibition [22]: 62.8%
inhibition [23]: 6%
inhibition [24]: 40.4%
inhibition [25]: 22.5%
inhibition [26]: 14.7%
inhibition [27]: 22.5%
inhibition [28]: -5.9%
inhibition [29]: 12.9%
inhibition [30]: 52.8%
inhibition [31]: 52.9%
inhibition [32]: 86.9%
inhibition [33]: 52.3%
inhibition [34]: 25.5%
inhibition [35]: 95.9%
inhibition [36]: 54.5%
inhibition [37]: 15%
